Results are given in words; binding and its absence hold for the method and conditions named. Some entries that bind do so weakly or less than the wild type.

By UniProt entry, the sequences of proteins in these tests, tags left out. Where a name states a change or a piece, a line headed by the entry shows the natural chain unless it says otherwise. Chains listed by the source or under a name are the forms on record and can include a tag or linker.
sVEGFR1 (P17948, form named): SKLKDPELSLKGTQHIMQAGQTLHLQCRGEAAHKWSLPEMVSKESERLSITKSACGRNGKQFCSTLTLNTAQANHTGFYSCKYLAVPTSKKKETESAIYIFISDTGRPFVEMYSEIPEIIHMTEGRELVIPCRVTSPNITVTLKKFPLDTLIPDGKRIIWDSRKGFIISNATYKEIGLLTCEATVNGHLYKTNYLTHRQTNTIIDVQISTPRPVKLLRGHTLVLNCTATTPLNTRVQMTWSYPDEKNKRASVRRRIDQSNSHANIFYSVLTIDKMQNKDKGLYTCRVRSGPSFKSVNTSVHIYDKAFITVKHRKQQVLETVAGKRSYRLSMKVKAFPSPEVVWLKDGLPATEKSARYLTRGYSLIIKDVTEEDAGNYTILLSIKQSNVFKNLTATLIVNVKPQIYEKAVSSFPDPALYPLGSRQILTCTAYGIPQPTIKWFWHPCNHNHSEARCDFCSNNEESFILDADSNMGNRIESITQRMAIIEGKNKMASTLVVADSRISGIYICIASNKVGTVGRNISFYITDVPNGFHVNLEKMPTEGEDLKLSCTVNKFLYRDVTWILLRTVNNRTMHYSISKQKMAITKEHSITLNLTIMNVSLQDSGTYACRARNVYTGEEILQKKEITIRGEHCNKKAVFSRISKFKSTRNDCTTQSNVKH

The target of assay [1] is Recombinant human PDGFRβ/Fc chimera (R&D Systems Cat #385 PR) (human) (UniProt P09619). Nature of the assay: ELISA binding screen on captured PDGFRβ-Fc and ELISA ligand competition. For orientation: An ELISA detects its analyte on a solid surface through an enzyme-linked reagent.
Assay [2] addresses sVEGFR1 (human) (UniProt P17948). Nature of the assay: phage ELISA on coated sVEGFR1 (0.1 ug/ml), detection with HRP anti-M13.

B1: 53-E8 (VHH)
VHH: EVQLVESGGGLVQAGGSLRLDCAASGRTSYAMGWFRQGTGKEREFVAAISPSGYYTYYEDSVKGRFFIHRDNAKNMVYLQMNSLTPEDTAVYYCAAGRHQTVSGILPDYWGQGIQVTVSS
Take B1: in assay [1], the binding entry was “binds”.

B2: 46-F11 (VHH)
VHH: EVQLVESGGGLVQPGGSLRLSCAASGFTFSSYAMSWVRQAPGKELEWVSGINSGGDRTVNADSVKGRFTVSRDNAKNTLYLQMNSLKPEDTALYYCAKSIPPTDDRNYWGQGTQVTVSS
Turning to B2, in assay [2], the binding entry is “binds”.

B3: 42-H5 (VHH)
VHH: EVQLVESGGGLVQPGGSLTLSCAASGFTFSSYAMSWVRQAPGKGLELVSDINSGGISTYYADSVKGRFTISRDNAKNTLYLQMNSLKPEDTAVYYCKTDTLVAGTDDYWGQGTRVTVSS
notes: Purified Nanobody; Also used as negative control in the PDGFRβ assays
In the case of B3, in assay [2], the binding entry is given as “binds”.

B4: 53-H5 (VHH)
VHH: EVQLVESGGGLVQIGGSLRLSCAASGRTFSSYAMGWFRQTPGKEREFVAAIGRNGGSIGYADSVKGRSTISRDNAKNMVYLQMNSLKPEDTAVYYCAATNKFSYSTLRNDYNYWGQGTQVTVSS
For B4, the binding result in assay [1] was “binds”.

(Values after patent US20110282033A1 (Ablynx, published 2011).)
